For this assay, the target named is T1, IL-17A重组蛋白 (UniProt Q16552).
T1 sequence (looked up): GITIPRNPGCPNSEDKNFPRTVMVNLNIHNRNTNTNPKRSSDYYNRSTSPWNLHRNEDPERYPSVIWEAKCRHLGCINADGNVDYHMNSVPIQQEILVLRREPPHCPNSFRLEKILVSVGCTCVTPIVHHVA
The assay is described as follows: ELISA, IL-17A coated at 1 μg/ml, scFv at 0.1 μg/ml, anti-His detection, OD450. For orientation: In an ELISA, binding on a coated surface is turned into a signal by an enzyme label.

No constants are given. Whether binding was seen depends on the method and setting. Some binding calls cover weakened binding; strength is not graded here.

B1: 全人源抗IL-17A单链抗体No.34 (scFv)
scFv: MQVQLVQSGAEVKPPGASVKVSCKASGYTFTTHKIQWVRQAPGQRLEWMGWINTDKGDTKYSQKFQGRVTITSDTSASTAFMDLSSLRSEDTAVYYCARDGEGYAPFGMDVWGQGTTVTVSSGGGGSGGGGSGGGGSDIRLTQSPPSLSASVGDRVTITCRASQTIGSHLNWYQQKPGKAPKLLIYAASSLQSGVPSRFSGSGSGTDFTLTISSLQPEDFATYYCQQSHSGLTFGGGTKVDIK
In the case of B1, the binding entry is recorded as “binds”.

The values are drawn from patent CN115819579A.
